Measurements: patent publication US8846125B2, “Enaminocarbonyl compounds and their use” (Instytut Chemii Organicznej, Polska Akademia Nauk, priority 2009, dated 2014)
Some entries share one result that the patent states for a list of compounds. At least one structure is not confirmed: it was looked up by name or label, or the drawing left a doubt.

How the values were obtained:
[1] = tested on: perception of sweet taste (panel members); test: Qualitative evaluation of the perception of sweet taste by a 5-volunteer panel; assay type: in vivo, healthy men; parameters: key: +: perception of sweet taste; ++: very strong perception of sweet taste; −: absence of sweet taste; settings: 4000 ppm solution in 20% ethanol; 10 ml mouth rinse 20 s; 5 panel members
Protocol: Compounds according to the present invention destined for testing of their taste perception modifying properties were re-crystallized from ethanol or an ethanol-water mixture.
Qualitative evaluation of the perception of sweet taste; the examined substances were dissolved in a 20% ethanol and water mixture (vol./vol.).
Three initial solutions were formulated, containing: • the compound of example 1 (3-benzylaminomethylenedihydrofuran-2-one, 4000 ppm solution-400 mg in 100 ml 20% ethanol), • compound of example 2 ((R)-3-(1-phenylethylamino)methylenedihydrofuran-2-one, 4000 ppm solution-400 mg in 100 ml 20% ethanol), • compound of example 6 (2-benzylaminomethylenecyclopentanone, 4000 ppm solution−400 mg in 100 ml 20% ethanol).
Solutions of lower concentrations were obtained through dilution, to appropriate proportions, of the initial solutions with a 20% mixture of ethanol and distilled water (vol./vol.).
(§1) Evaluation of the degree of sweetness of the compounds according to the present invention was performed using a 5-volunteer panel—healthy men—henceforth referred to as panel members. All panel members were informed of the need to maintain safety procedures during the evaluation of the compounds according to the present invention, In particular, of the need to avoid swallowing the tested solutions. Each of the panel members received a 10 ml sample of a solution in a small vial and rinsed out their mouth with the entire contents of the vial for 20 seconds and then spit out the tested solution. Next, they carefully rinsed out their mouth with a large volume of distilled water (at least 150 ml) for at least 30 seconds. When the panel member felt that they no longer perceived any taste, they could proceed with the evaluation of the next solution.
During the first stage, the panel members qualitatively examined the taste of the three initial solutions containing 4000 ppm of a compound according to the present invention. The panel members all agreed that the solutions have an intensive sweet taste.
An additional qualitative evaluation was made of compounds according to the present invention from examples 4, 7 and 9, and compounds from comparative examples 1-19, in the form of 4000 ppm solutions. […] Solutions of compounds from the comparative examples lack a sweet taste.

[2] = tested on: sweet taste of saccharose (panel members); test: Inhibition of sweet taste of a saccharose solution, qualitative panel evaluation; assay type: in vivo, healthy men; parameters: key: ++: complete inhibition of sweet taste; −: lack of inhibition of sweet taste; settings: 100 mg saccharose in 5 ml 20% aqueous ethanol plus 100 mg compound, vs saccharose solution without compound
Protocol: as §1
The inhibition of sweet taste of sweet substances or mixtures thereof by inhibitors of sweet taste according to the present invention was examine qualitatively according to the following procedure. Two samples of saccharose, each of 100 mg, are dissolved in 5 ml 20% of aqueous ethanol, and then one solution is supplemented with 100 mg of a compound of an example according to the present invention (compounds from examples 3, 5, and 8). Next, the taste of both solutions is evaluated using the procedure presented above, for the qualitative perception of a sweet taste. […] The study was also performed on compounds from comparative examples 1-19.

Row | Structure (SMILES) | Perception of sweet taste [1] | Inhibition of sweet taste [2]
1 | CC(C)NC=C1CCOC1=O [compound 9, 3-(2-propylo)aminomethylenedihydrofuran-2-one] | − | −
2 | O=C1OCCC1=CNc1ccccc1 [compound 12, phenylaminomethylenedihydrofuran-2-one] | − | −
3 | O=C1OCCC1=CNCc1ccc2ccccc2c1 [compound 18, 3-(2-naftylomethyl)aminomethylenedihydrofuran-2-one] | − | −
4 | O=C1OCCC1=CNCc1ccco1 [compound 19, 3-(2-furylomethyl)aminomethylenedihydrofuran-2-one] | − | −
